# Out of some 320,000 compounds screened, about 22,000 (6.9%) were called active. Inconclusive results, whose numbers are uncertain, are shown with a selection of clear calls. Calls come from the whole dose curve; as a rule, active = well fitted inhibition curve with a large enough effect; inconclusive = small, poorly fitted or top-dose-only effect, or another doubt; inactive = no such curve, though single readings can be large or run the other way. Potencies of inconclusive entries are doubtful fits and often do not repeat.
# Experiment: Primary qHTS for delayed death inhibitors of the malarial parasite plastid, 96 hour incubation
# Details: P. falciparum luciferase reporter growth; series mostly up to 28.7 µM; activity change, negative = inhibition: at the top concentration
# How it was run: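 Plates of compound plus infected erythrocytes (2% hematocrit, 0.05% parasitemia final) incubate 96 hours, 37 C, 5% CO2. Detection reagent added; reduced luminescence from the parasites' luciferase reporter flags inhibition.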
# % is set by controls: 0 for no effect and ±100 for the full control effect; potency is the fitted concentration of half-maximal effect.
Compound,Potency,"activity change, negative = inhibition"
O=C(NCc1ccc(F)cc1)C(Cc1ccccc1)NS(=O)(=O)c1cccs1 (stereo unspecified),"inconclusive: 20.8 µM [inhibitor, single point]",
Cc1ccc2ncccc2c1NS(=O)(=O)c1ccccc1,"inconclusive: 13.1 µM [inhibitor, partial curve, poor fit]",
CSCC[C@H](NC(=O)OC(C)(C)C)C(=O)N1CCC(C(=O)N[C@@H](C)C(=O)O)CC1,"inconclusive: 16.5 µM [inhibitor, partial curve, poor fit]",
CCCCNc1c(-c2ccc(-c3ccc(C(C)=O)cc3)c(OC)c2)nc2cnccn12,"inconclusive: 4.15 µM [inhibitor, full curve, poor fit]",
FC(F)Sc1nnc(-c2cccs2)n1-c1ccccc1,"inconclusive: 0.37 µM [inhibitor, partial curve, poor fit]",
O=C(/C=C/c1ccccc1)Nc1nnc(-c2ccco2)o1,,inactive: -43.4% [at 1.15 µM]
Cc1c(C)n2c(SCC(=O)N3CCN(c4ccccc4)CC3)nnc2[nH]c1=O,"inconclusive: 1.85 µM [inhibitor, partial curve, poor fit]",
O=C(CCc1nc2ccccc2s1)c1ccccc1,"inconclusive: 10.4 µM [inhibitor, single point]",
COc1ccc(CN2C3CCCC2CC(NC(=O)Nc2ccccc2)C3)cc1 (stereo unspecified),"inconclusive: 18.5 µM [inhibitor, single point]",
Clc1ccc(Cl)c(OCCCCN2CCNCC2)c1,,inactive: -21.4%
Cc1ccc(-c2cn(S(=O)(=O)c3ccc(C)cc3)nc2N)cc1,"inconclusive: 10.4 µM [inhibitor, single point]",
O=C(COc1ccccc1)Nc1ccncc1,,inactive: 10%
COc1ccc(CNC(=O)COC(=O)/C=C/c2cccc(Br)c2)cc1OC,,inactive: -26.1%
CN(Cc1ccon1)Cc1cn(C)nc1-c1ccc(Oc2ccccc2)cc1,,inactive: -1.26%
CCCCCCn1cnc2c(c1=O)c1nc3ccccc3nc1n2/N=C/c1ccco1,"inconclusive: 14.7 µM [inhibitor, partial curve, poor fit]",
Cc1ccc(CCNC(=O)C2CC(=O)N(CCc3ccccc3)C2)cc1 (stereo unspecified),"inconclusive: 10.4 µM [inhibitor, partial curve, poor fit]",
CC(Cl)C(=O)Nc1c2c(nn1-c1ccccc1)CSC2 (stereo unspecified),,inactive: -4.29%
O=C(c1cc(Br)c(Br)s1)N1CCN(c2ccccn2)CC1,"inconclusive: 18.5 µM [inhibitor, single point]",
Cc1ccccc1C(=O)/C(C#N)=N/Nc1c(C)n(C)n(-c2ccccc2)c1=O,,inactive: 12.4%
CCOc1ccc(CCNC(=O)C2CCN(c3ccc(N4CCOCC4)nn3)CC2)cc1OCC,"inconclusive: 11.7 µM [inhibitor, partial curve, poor fit]",
CC(NC(=O)/C(C#N)=C/c1cn(-c2ccccc2)nc1-c1ccc(F)cc1)c1ccccc1 (stereo unspecified),"inconclusive: 18.5 µM [inhibitor, single point]",
Cc1ccc(OCC(=O)NCCNC(=O)c2ccncc2)cc1,,inactive: 33%
Cc1cccc(NC(=S)N/N=C/c2ccc3c(c2)OCO3)c1,,inactive: -18.1%

Compound,Potency,"activity change, negative = inhibition"
CSc1ccccc1NC(=O)CN(C)CC(=O)NCc1ccccc1,,inactive: 34.9%
COc1cc(C(=O)NN(CCC#N)C2=NS(=O)(=O)c3ccccc32)cc(OC)c1OC,,inactive: -9.76%
CC(C)c1cc(=O)oc2c3c4c(cc12)CCCN4CCC3,,inactive: 32.9%
COc1cc2cc(C(c3nnnn3C3CCCC3)N3CCc4ccccc43)c(=O)[nH]c2cc1OC (stereo unspecified),active: 9.28 µM,
CCOc1cc(/C=N/Nc2nnc(C)n2N)ccc1OC(C)=O,"inconclusive: 11.7 µM [inhibitor, single point]",
O=C(COc1ccc(-c2nnco2)cc1)N1CCN(S(=O)(=O)c2ccc3ccccc3c2)CC1,"inconclusive: 2.62 µM [inhibitor, partial curve, poor fit]",
COc1ccc2c(c1)C(c1cccs1)=NNC(c1ccncc1)=N2,"inconclusive: 5.86 µM [inhibitor, partial curve]",
O=C(NCc1ccc2c(c1)OCO2)C1CCN(c2ccc(S(=O)(=O)N3CCCC3)cc2)CC1,,inactive: 67.9%
COc1ccccc1N1CCN(c2ccc([N+](=O)[O-])cn2)CC1,"inconclusive: 18.5 µM [inhibitor, single point]",
O=C(Nc1nccs1)c1ccc(NC(=O)c2ccco2)cc1,"inconclusive: 0.104 µM [inhibitor, full curve, poor fit]",
COc1ccc(CN2C(=O)c3ccccc3C2C(=O)NCC2CCCO2)c(OC)c1 (stereo unspecified),active: 4.65 µM,
CN(Cc1cccs1)C(=O)CSc1nc(N)cc(N)n1,,inactive: 24.7%
Cc1cc(CC(=O)O)c(C)n1-c1ccc(Cl)cc1,active: 10.7 µM,
C=CCn1c(C(c2ccccc2)c2ccccc2)n[nH]c1=S,active: 3.7 µM,
CC(C)=CC(=O)N1CCCC(N2CCN(c3ccc(F)cc3)CC2)C1 (stereo unspecified),"inconclusive: 0.586 µM [inhibitor, full curve, poor fit]",
Cn1c(=NC(=O)c2ccccc2[N+](=O)[O-])sc2cccc(F)c21,,inactive: 236%
CC1CCCCC1NC(=O)CCCCCn1c(=S)[nH]c2ccccc2c1=O (stereo unspecified),"inconclusive: 0.738 µM [inhibitor, partial curve, poor fit]",
Cn1c(C(=O)NCCN2CCOCC2)cc2c(=O)n(C)c3ccccc3c21,"inconclusive: 13.1 µM [inhibitor, single point]",
O=C(Cn1cnc2ccccc2c1=O)NC1CCS(=O)(=O)C1 (stereo unspecified),"inconclusive: 13.1 µM [inhibitor, single point]",
CCCn1c(SCC(=O)N2CCCc3ccccc32)nc2c1c(=O)n(C)c(=O)n2C,"inconclusive: 11.7 µM [inhibitor, single point]",
O=C(NC(=S)Nc1ncccn1)c1ccc(Cl)cc1Cl,"inconclusive: 2.94 µM [inhibitor, full curve]",
CC(C)[C@]12CC(=O)[C@H](C)[C@H]1C2,"inconclusive: 16.5 µM [inhibitor, single point]",
Cc1sc2ncn(CC(=O)N3CCCCC3)c(=O)c2c1S(=O)(=O)N1CCC(C)CC1,"inconclusive: 0.0828 µM [inhibitor, full curve, poor fit]",

# Three structures out of the list, ordered by count of non-hydrogen atoms, descending:
Compound,Potency,"activity change, negative = inhibition"
COc1ccc2c(c1)C(c1cccs1)=NNC(c1ccncc1)=N2,"inconclusive: 5.86 µM [inhibitor, partial curve]",
O=C(c1cc(Br)c(Br)s1)N1CCN(c2ccccn2)CC1,"inconclusive: 18.5 µM [inhibitor, single point]",
FC(F)Sc1nnc(-c2cccs2)n1-c1ccccc1,"inconclusive: 0.37 µM [inhibitor, partial curve, poor fit]",
